Measured values published in article doi:10.1101/2025.01.27.635192.
Results are given in words; binding and its absence hold for the method and conditions named. A result given as binding can be weak or reduced; the word gives no strength.

Molecular target: wild-type yeast α/β-tubulin heterodimer (S. cerevisiae (endogenous in S288C yeast))
Assay: TIRF microscopy of Kip3-mNeonGreen on surface-held microtubules

binding: binds
B1: Kip3-mNeonGreen (protein, UniProt P53086 1-805)
chain: MNVPETRQSSIVVAIRVRPFTSMEKTRLVNEASGAEANFPGLGDSSLILPMSNNSDSDIDIDAEEGSTRSKRNSLLRRKVIRPEGIRKIVDCVDDRMLIFDPADRNPLNKVSDQVLNSMRARATKATASSINNSNATNKFSSQRRRHGGEIKFVFDKLFDETSSQARVYKETTSPLLDSVLDGFNSTVFAYGATGCGKTYTVSGTPSQPGIIFLAMEELFNKITDLKDEKDFEISLSYLEIYNERIRDLLKPETPSKRLVIREDTQNHIKVANLSYHHPNTVEDVMDLVVQGNINRTTSPTEANEVSSRSHAVLQIHIMQTNKLVDLTSQHTFATLSIIDLAGSERAAATRNRGIRLHEGANINRSLLALGNCINALCLNDGSRSCHIPYRDSKLTRLLKFSLGGNCKTVMIVCISPSSSHYDETLNTLKYANRAKEIKTKIIRNQQSLSRHVGSYLKMITEQKRQIEELREREEKMISLKLTKYKLNKEKIQLAINECVNRVQQTYAGVETYQVAKTLKSLILCKRRFLQMVKLEVDNLILLFEREESTAAEMQPVISNCRMISGQLYNKIHELEMKFDETDTLSSVIHQVHSIDLNKLREMEDWDETYDLVYLESCLNQISELQRNEILVNSSIMTEKLMSDPGLNSRFKFLSKWLMNRTPNIESIIQDLVHIDEEFESFARTFIANPDSNFTNTNINIINTTAADLAVPAETLQRQNFSQKKVKWTSPDLSPSPMIEPQPELEPELHQDQDAIASEVDVSMQDTTFNEQGPSTPSAPTTAVPRRKMRSSLLTHQSLLATARK
